From patent US20070066803A1

Experiments:
plakoglobin [1] = assay: co-immunoprecipitation with anti-Myc 9E10 or anti-plakoglobin PG5.1, Western blot
plakoglobin [2] = assay: co-immunoprecipitation from cell lysates (MDCK-Tetoff-hECRep1a -Tet), Western blot

B1: Myc-tagged full-length human hECRep1a (protein, not shown: small tags and cut ends)
chain: MEAFPWAPRSPRRGRAPPPMALVPSARYVSAPGPAHPQPFSSWNDYLGLATLITKAVDGEPRFGCARGGNGGGGSPPSSSSSSCCSPHTGAGPGALGPALGPPDYDEDDDDDSDEPGSRGRYLGSALELRALELCAGPAEAGLLEERFAELSPFAGRAAAVLLGCAPAAAAAATTTSEATPREERAPAWAAEPRLHAASGAAAARLLKPELQVCVFCRNNKEAMALYTTHILKGPDGRVLCPVLRRYTCPLCGASGDNAHTIKYCPLSKVPPPPARPPPRSARDGPPGKKLR
- binding (plakoglobin [1]): binds
- binding (plakoglobin [2]): binds

Results are given in words; binding and its absence hold for the method and conditions named. In cells and extracts the contact can be indirect. Binding calls can cover weak binding; strength is not graded here. Where a sequence is shown, tags or fusion partners need not be part of it.
